According to PMC10984026:
No constants are given. Whether binding was seen depends on the method and setting. In cells and extracts the contact can be indirect. Some entries that bind do so weakly or less than the wild type.

Chains of the proteins cited; added tags and fusions are not shown. Residues count along the entry.
UniProt Q6YHK3, residues 22-1420: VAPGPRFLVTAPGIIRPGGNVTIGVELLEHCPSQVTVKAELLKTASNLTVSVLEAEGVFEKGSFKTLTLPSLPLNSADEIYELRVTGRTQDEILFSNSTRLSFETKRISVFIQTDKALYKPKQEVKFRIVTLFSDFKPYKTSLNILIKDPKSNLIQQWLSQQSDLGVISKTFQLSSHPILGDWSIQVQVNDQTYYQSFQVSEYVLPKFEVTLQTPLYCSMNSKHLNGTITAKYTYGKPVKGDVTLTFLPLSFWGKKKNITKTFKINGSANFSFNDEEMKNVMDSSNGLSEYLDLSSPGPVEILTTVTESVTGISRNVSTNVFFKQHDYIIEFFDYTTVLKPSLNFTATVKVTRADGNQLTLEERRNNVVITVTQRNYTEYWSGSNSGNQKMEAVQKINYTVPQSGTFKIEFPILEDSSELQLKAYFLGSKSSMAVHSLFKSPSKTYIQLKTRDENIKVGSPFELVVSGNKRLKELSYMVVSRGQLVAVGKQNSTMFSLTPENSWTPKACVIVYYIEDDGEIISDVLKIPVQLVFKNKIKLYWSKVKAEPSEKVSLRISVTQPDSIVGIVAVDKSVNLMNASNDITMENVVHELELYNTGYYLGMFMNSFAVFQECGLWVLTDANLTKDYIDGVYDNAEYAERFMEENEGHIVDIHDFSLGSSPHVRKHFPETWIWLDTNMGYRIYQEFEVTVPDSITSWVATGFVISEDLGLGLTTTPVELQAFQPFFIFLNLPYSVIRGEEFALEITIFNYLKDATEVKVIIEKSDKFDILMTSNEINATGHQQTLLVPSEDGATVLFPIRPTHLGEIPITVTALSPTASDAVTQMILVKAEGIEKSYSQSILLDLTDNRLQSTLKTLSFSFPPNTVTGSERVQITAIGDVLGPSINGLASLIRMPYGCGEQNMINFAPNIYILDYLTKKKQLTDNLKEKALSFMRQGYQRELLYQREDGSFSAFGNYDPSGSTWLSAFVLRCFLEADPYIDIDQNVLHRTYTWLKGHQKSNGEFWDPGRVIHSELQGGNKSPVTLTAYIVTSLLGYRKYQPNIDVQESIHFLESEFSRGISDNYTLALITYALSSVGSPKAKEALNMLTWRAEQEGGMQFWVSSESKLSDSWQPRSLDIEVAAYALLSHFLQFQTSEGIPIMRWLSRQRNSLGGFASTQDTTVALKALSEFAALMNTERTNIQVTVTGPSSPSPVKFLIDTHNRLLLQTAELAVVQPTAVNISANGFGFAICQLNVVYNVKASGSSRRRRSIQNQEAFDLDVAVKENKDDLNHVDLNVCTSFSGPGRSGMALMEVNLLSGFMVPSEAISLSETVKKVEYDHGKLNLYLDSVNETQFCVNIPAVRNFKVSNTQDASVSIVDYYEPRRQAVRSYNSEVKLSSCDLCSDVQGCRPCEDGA
UniProt Q14126, residues 50-1118: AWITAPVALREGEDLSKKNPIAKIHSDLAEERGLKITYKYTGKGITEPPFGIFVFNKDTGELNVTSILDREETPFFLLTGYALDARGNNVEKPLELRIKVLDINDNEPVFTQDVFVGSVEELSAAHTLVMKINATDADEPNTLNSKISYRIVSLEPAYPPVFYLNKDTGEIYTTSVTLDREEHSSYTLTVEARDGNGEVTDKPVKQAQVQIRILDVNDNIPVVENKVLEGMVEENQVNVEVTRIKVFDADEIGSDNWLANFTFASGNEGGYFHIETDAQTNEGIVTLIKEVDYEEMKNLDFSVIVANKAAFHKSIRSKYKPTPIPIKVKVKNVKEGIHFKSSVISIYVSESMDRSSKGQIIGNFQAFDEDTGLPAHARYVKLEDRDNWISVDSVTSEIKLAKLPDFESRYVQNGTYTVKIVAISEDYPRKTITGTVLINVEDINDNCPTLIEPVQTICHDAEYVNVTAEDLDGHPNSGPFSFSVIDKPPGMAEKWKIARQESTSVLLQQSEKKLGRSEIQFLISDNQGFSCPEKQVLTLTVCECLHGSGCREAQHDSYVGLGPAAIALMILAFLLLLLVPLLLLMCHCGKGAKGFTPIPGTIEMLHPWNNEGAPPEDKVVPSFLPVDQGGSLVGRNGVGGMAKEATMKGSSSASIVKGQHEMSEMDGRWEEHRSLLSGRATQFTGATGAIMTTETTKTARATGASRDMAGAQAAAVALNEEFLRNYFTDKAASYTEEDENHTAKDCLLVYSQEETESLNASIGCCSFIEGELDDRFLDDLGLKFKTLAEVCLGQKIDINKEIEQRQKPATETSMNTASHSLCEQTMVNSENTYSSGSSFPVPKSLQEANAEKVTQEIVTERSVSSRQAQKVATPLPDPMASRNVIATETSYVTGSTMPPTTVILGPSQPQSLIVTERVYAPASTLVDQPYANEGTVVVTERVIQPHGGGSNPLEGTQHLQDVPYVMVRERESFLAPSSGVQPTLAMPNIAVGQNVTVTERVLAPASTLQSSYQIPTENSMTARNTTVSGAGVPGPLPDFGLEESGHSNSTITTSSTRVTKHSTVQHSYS

Tests used:
[1] = target: N-terminally His-tagged CD109 (UniProt Q6YHK3); test: co-IP; lysate (DPBS + 1 % Triton X-100) of HEK293T stably expressing N-terminally His-tagged CD109 (A1); precipitated with Ni-NTA agarose; western blot for endogenous DSG2 and CD109
[2] = target: HA-tagged DSG2 (desmoglein-2) (UniProt Q14126); test: co-IP; HEK293T stably expressing HA-tagged DSG2 (C2C), transiently transfected with untagged CD109; lysate in DPBS + 1 % Triton X-100; HA-tag (6E2) antibody and Dynabeads Protein G, 4 °C; western blot for CD109

Row | binding [1] | binding [2] | Substance
1 | binds | – | desmoglein-2 (DSG2), endogenous (from UniProt Q14126 50-1118)
2 | – | binds | untagged CD109 (from UniProt Q6YHK3 22-1420)
